This is one part of the list.

Chains of the proteins cited; added tags and fusions are not shown.
UniProt Q0JBA9, entry or part of it: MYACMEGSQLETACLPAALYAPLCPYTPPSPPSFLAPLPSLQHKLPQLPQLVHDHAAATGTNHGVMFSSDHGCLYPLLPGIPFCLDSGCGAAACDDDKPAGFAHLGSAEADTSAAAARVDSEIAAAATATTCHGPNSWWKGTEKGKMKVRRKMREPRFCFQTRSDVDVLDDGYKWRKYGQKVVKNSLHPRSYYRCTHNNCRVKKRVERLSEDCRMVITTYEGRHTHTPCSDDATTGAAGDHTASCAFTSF

In the experiment the target is OsWRKY34 (Oryza sativa, UniProt Q0JBA9 1-250). Kind of experiment: protein-binding microarray (RPBM); PBS, 2% BSA, 51.3 ng/ul salmon testes DNA, 50 uM zinc acetate, 200 nM TF, 25 C, 1 h; high values mean tight binding. The following applies: protein: recombinant; tags: N-terminal polyhistidine and DsRed monomer fusion (pET32a); label: CyDye5-dUTP incorporated in the synthesized complementary strand; 3' TTTTT single-stranded linker to array surface; dsDNA, one strand shown. The method, boiled down: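 The binding signal is fluorescence intensity per array feature (arbitrary units). Readings came from an Axon 4000B scanner after a washed, 2% BSA-blocked, double-stranded custom Agilent array had been incubated for 1 h at 25 °C with 200 nM protein and 50 µM zinc acetate. The protein was a Ni–NTA-purified transcription factor fused N-terminally to polyhistidine and DsRed, expressed in E. coli BL21-CodonPlus.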
As for “TTACTCGAGCCATTGCCACTTCTTTTTCTTCTTTGAATTACGGAGTCACCTAGTGCAG”, the binding signal was 9580 fluorescence intensity (a.u.).

Consider “ACCTAGCATCAATCCTCGCTGAACATTATTTGTTATATACCGGAGTCACCTAGTGCAG”, for which the binding signal was 11700 fluorescence intensity (a.u.).

As for “ACGTGGCGGCGTTGACTTAGTCTTCGTTCCACGTGTAGTTCGGAGTCACCTAGTGCAG”, the binding signal was 11400 fluorescence intensity (a.u.).

For the sequence “ATTGTTTTAGCCACCTTCCCACTCCTGCCATTATCCATTCCGGAGTCACCTAGTGCAG”, the binding signal was 10200 fluorescence intensity (a.u.).

Take “GTTCCAAATCGTCGCAGTTACCGTCTTCTCCACTAATTTCCGGAGTCACCTAGTGCAG”: the binding signal is 9590 fluorescence intensity (a.u.).

For “TTGGTTGAGTGGGGAGAGAGAGGGGAAAACACCAAGAAAGCGGAGTCACCTAGTGCAG”, the binding signal is 8710 fluorescence intensity (a.u.).

As to “AAACCTCCACCACCACCGCCACCACCGCCGCGCAAAACCCCGGAGTCACCTAGTGCAG”, the binding signal is 8700 fluorescence intensity (a.u.).

For “GAAACAAAGCCCCAAAACCCAATCTATCCTCAATTGATTTCGGAGTCACCTAGTGCAG”, the binding signal is 8500 fluorescence intensity (a.u.).

Regarding “TACTGGTTTGTGTGTGTCGGTATTTCCCTTACAAAATGATCGGAGTCACCTAGTGCAG”, the binding signal is 10000 fluorescence intensity (a.u.).

On to “TGTCTTATTTCTGCATGTCTCTTAGAAGTCAAAATTTATACGGAGTCACCTAGTGCAG”, for which the binding signal was 9530 fluorescence intensity (a.u.).

“TTAACAGCGAAGCAAAACATCTCACTTTTTTTCTCTTTTGCGGAGTCACCTAGTGCAG”: the binding signal was 9950 fluorescence intensity (a.u.).

For the sequence “AAATCTAACGGCCCATGAACGCATCTCACCGTCCCCTTCTCGGAGTCACCTAGTGCAG”, the binding signal is 8910 fluorescence intensity (a.u.).

Take “ATGTTGTCGCGACTTTCGTATTCAGTCATTTAAGATATGTCGGAGTCACCTAGTGCAG”: the binding signal is 10900 fluorescence intensity (a.u.).

As for “ATCCCGCGCAAAAGCTGCGGCTCCACGCGCGCGCGTCATCCGGAGTCACCTAGTGCAG”, the binding signal is 8080 fluorescence intensity (a.u.).

On to “CATATTTCTTCTCTCTCTCTACCACCCTACCTAGCTTAGACGGAGTCACCTAGTGCAG”, for which the binding signal was 9360 fluorescence intensity (a.u.).

“CCTCCTTCGCCGTCATGGAGGCCCTCGGCTCCGCGCTCACCGGAGTCACCTAGTGCAG”: the binding signal is 8460 fluorescence intensity (a.u.).

For the sequence “CTCTGCACCCAGCCCAGTCCGAGCAATTTCTTTTACGTTGCGGAGTCACCTAGTGCAG”, the binding signal was 10300 fluorescence intensity (a.u.).

Take “CGGTGAGGGGTGGACTGGGAGTGCGTGGGTGGGTGTGATGCGGAGTCACCTAGTGCAG”: the binding signal was 13400 fluorescence intensity (a.u.).

As to “CCATTTCCGTACCGTTTTAGCCCATACACCACACTTGTGGCGGAGTCACCTAGTGCAG”, the binding signal was 9000 fluorescence intensity (a.u.).

On to “TCGCCGCAACCGCAATGTAAGCCGCTTGCCTTTTCTTCTTCGGAGTCACCTAGTGCAG”, for which the binding signal was 8650 fluorescence intensity (a.u.).

Consider “TTAGCGGCGGTGGCAAGTGCTCCAACATTGACTTCTAACTCGGAGTCACCTAGTGCAG”, for which the binding signal was 8380 fluorescence intensity (a.u.).

As to “TGATTTCATCCACTTTTCCTTTCGGTTGTTCTCATTCACTCGGAGTCACCTAGTGCAG”, the binding signal was 13600 fluorescence intensity (a.u.).

In the case of “CTCTCGGCCGCCGCTCCGCCGTGCCTATGGCCGCCGCCGGCGGAGTCACCTAGTGCAG”, the binding signal is 8550 fluorescence intensity (a.u.).

Consider “ACTTGATGTTGTCATATGATGGTTGCATGCTTGCATGTTTCGGAGTCACCTAGTGCAG”, for which the binding signal was 8130 fluorescence intensity (a.u.).

Consider “TGTCTTCCAGTTTGATCCTTCCATGCAGTATATCAGTATTCGGAGTCACCTAGTGCAG”, for which the binding signal was 9900 fluorescence intensity (a.u.).

“TGAGCTTACACGTTTTGATACCTGTGATGTTCGAATAAACCGGAGTCACCTAGTGCAG”: the binding signal is 9050 fluorescence intensity (a.u.).

As for “CTGAGAATTTAGGACCTGATCACTTTTATGACATTTTCAACGGAGTCACCTAGTGCAG”, the binding signal was 8610 fluorescence intensity (a.u.).

Turning to “TCCATTCTCCACTCTCCTCTCTCTCAATCATTCTAATCGACGGAGTCACCTAGTGCAG”, the binding signal was 8330 fluorescence intensity (a.u.).

Consider “GAGACCGCCGCCGCCTCCTCGTCCGGCCGCCGCCTCGTCCCGGAGTCACCTAGTGCAG”, for which the binding signal is 9360 fluorescence intensity (a.u.).

With “TCCGAAATGTCACGCCGTTATGCATTTGCTGTTTTGCCGTCGGAGTCACCTAGTGCAG”, the binding signal was 8750 fluorescence intensity (a.u.).

As for “CACAGTTTTTGCAGCCGGAACGAGCTGTCCAGGCTACTACCGGAGTCACCTAGTGCAG”, the binding signal was 8260 fluorescence intensity (a.u.).

Regarding “GCTCCATCCCTCCGTCTTCCACGGCGCGAGACTCTCTCGACGGAGTCACCTAGTGCAG”, the binding signal was 10000 fluorescence intensity (a.u.).

With “CTCTCGGTCTTGCAGTGCATAATGTTTTTTGTTTTTTTTTCGGAGTCACCTAGTGCAG”, the binding signal is 10700 fluorescence intensity (a.u.).

Consider “CCAAGTATCCATCACACGTCTCTCCTTTCCACCTCGTCAACGGAGTCACCTAGTGCAG”, for which the binding signal was 12700 fluorescence intensity (a.u.).

For “ATGACGAGGACGGGCGGTGGGCATGGGCGGTTGGCGAGGACGGAGTCACCTAGTGCAG”, the binding signal is 8850 fluorescence intensity (a.u.).

As for “TGTTCAGATTTATTGTATTAGGGGTTATAGATTGGATTTTCGGAGTCACCTAGTGCAG”, the binding signal was 11800 fluorescence intensity (a.u.).

“CTCCATGCTTGTTGCATGTCTCTTTGCATATGCGCATGGCCGGAGTCACCTAGTGCAG”: the binding signal was 8370 fluorescence intensity (a.u.).

With “GATCATGCCATGCTTTTCCTTCCCTGTCCTGCAAGATTCGCGGAGTCACCTAGTGCAG”, the binding signal was 9100 fluorescence intensity (a.u.).

Take “TTCGTTTTGCGTGCCGGGAAGGAGGGGTTCCCAACTCTTTCGGAGTCACCTAGTGCAG”: the binding signal is 9350 fluorescence intensity (a.u.).

Turning to “CCATTGCTTTCTTTTTTTCCTACAATACTTGCTTGCTTACCGGAGTCACCTAGTGCAG”, the binding signal was 9480 fluorescence intensity (a.u.).

With “TTTTTTTCGTTTCACTATATATAAGTTAATTTTCATTTGTCGGAGTCACCTAGTGCAG”, the binding signal is 8070 fluorescence intensity (a.u.).

As for “CATTACAATTCGTCTATTCATAGCTGTGCCACTTAAATTTCGGAGTCACCTAGTGCAG”, the binding signal is 9890 fluorescence intensity (a.u.).

These data come from publication PMC7819943, “Rice protein-binding microarrays: a tool to detect cis-acting elements near promoter regions in rice”.
